# In the supplement of paper PMC8728848:
# This is one part of the list.
# B1: pTFF2 (Sus scrofa), P01359 (protein)
# chain: KPAACRCSRQDPKNRVNCGFPGITSDQCFTSGCCFDSQVPGVPWCFKPLPAQESEECVMEVSARKNCGYPGISPEDCAARNCCFSDTIPEVPWCFFPMSVEACHY
# Legend:
# Experiment in all cases: glycan array binding signal (z-score within array); higher = stronger binding
# Details in all cases: glycan notation: IUPAC condensed, linker removed
# [1] = biological target: Neu5Ac(a2-3)Gal(b1-3)GlcNAc(b1-6)GalNAc
# Summary of the method: (§1)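 Glycan array binding is given as a within-array Z-score, which can be read as non-binding when negative. The arrays, 3228 of them, came from the Consortium for Functional Glycomics database and were retained only where the protein sequence was available. Z-scores were averaged across arrays of the same protein sequence at different concentrations or buffers and across linkers.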
# [2] = biological target: Neu5Ac(a2-3)Gal(b1-3)GlcNAc6S
# Summary of the method: as §1
# [3] = biological target: Neu5Ac(a2-3)Gal(b1-3)[Fuc(a1-4)]GlcNAc
# Summary of the method: as §1
# [4] = biological target: Neu5Ac(a2-3)Gal(b1-3)[Fuc(a1-4)]GlcNAc(b1-3)Gal(b1-3)[Fuc(a1-4)]GlcNAc
# Summary of the method: as §1
# [5] = biological target: Neu5Ac(a2-3)Gal(b1-3)[Fuc(a1-4)]GlcNAc(b1-3)Gal(b1-4)[Fuc(a1-3)]GlcNAc
# Summary of the method: as §1
# [6] = biological target: Neu5Ac(a2-3)Gal(b1-3)[GlcNAc(b1-6)]GalNAc
# Summary of the method: as §1
# [7] = biological target: Neu5Ac(a2-3)Gal(b1-3)[Neu5Ac(a2-6)]GalNAc
# Summary of the method: as §1
# [8] = biological target: Neu5Ac(a2-3)Gal(b1-3)[Neu5Ac(a2-6)]GlcNAc(b1-3)[Fuc(a1-3)[Gal(b1-4)]GlcNAc(b1-6)]Gal(b1-4)Glc
# Summary of the method: as §1
# [9] = biological target: Neu5Ac(a2-3)Gal(b1-3)]Neu5Ac(a2-3)Gal(b1-4)]GlcNAc
# Summary of the method: as §1
# Neu5Ac(a2-3)Gal(b1-4)Glc = biological target: Neu5Ac(a2-3)Gal(b1-4)Glc
# Summary of the method: as §1
# [10] = biological target: Neu5Ac(a2-3)Gal(b1-4)GlcNAc
# Summary of the method: as §1
# [11] = biological target: Neu5Ac(a2-3)Gal(b1-4)GlcNAc(b1-2)Man
# Summary of the method: as §1
# [12] = biological target: Neu5Ac(a2-3)Gal(b1-4)GlcNAc(b1-2)Man(a1-3)[GlcNAc(b1-4)][Neu5Ac(a2-3)Gal(b1-4)GlcNAc(b1-2)Man(a1-6)]Man(b1-4)GlcNAc(b1-4)GlcNAc
# Summary of the method: as §1
# [13] = biological target: Neu5Ac(a2-3)Gal(b1-4)GlcNAc(b1-2)Man(a1-3)[Neu5Ac(a2-3)Gal(b1-4)GlcNAc(b1-2)Man(a1-6)]Man(b1-4)GlcNAc(b1-4)GlcNAc
# Summary of the method: as §1
# [14] = biological target: Neu5Ac(a2-3)Gal(b1-4)GlcNAc(b1-2)Man(a1-3)[Neu5Ac(a2-3)Gal(b1-4)GlcNAc(b1-2)Man(a1-6)]Man(b1-4)GlcNAc(b1-4)[Fuc(a1-6)]GlcNAc
# Summary of the method: as §1
# [15] = biological target: Neu5Ac(a2-3)Gal(b1-4)GlcNAc(b1-2)Man(a1-3)[Neu5Ac(a2-6)Gal(b1-4)GlcNAc(b1-2)Man(a1-6)]Man(b1-4)GlcNAc(b1-4)GlcNAc
# Summary of the method: as §1
# [16] = biological target: Neu5Ac(a2-3)Gal(b1-4)GlcNAc(b1-2)[Neu5Ac(a2-3)Gal(b1-4)GlcNAc(b1-4)]Man(a1-3)[GlcNAc(b1-4)][Neu5Ac(a2-3)Gal(b1-4)GlcNAc(b1-2)[Neu5Ac(a2-3)Gal(b1-4)GlcNAc(b1-6)]Man(a1-6)]Man(b1-4)GlcNAc(b1-4)GlcNAc
# Summary of the method: as §1
# [17] = biological target: Neu5Ac(a2-3)Gal(b1-4)GlcNAc(b1-2)[Neu5Ac(a2-3)Gal(b1-4)GlcNAc(b1-4)]Man(a1-3)[GlcNAc(b1-4)][Neu5Ac(a2-3)Gal(b1-4)GlcNAc(b1-4)Man(a1-6)]Man(b1-4)GlcNAc(b1-4)GlcNAc
# Summary of the method: as §1
# [18] = biological target: Neu5Ac(a2-3)Gal(b1-4)GlcNAc(b1-2)[Neu5Ac(a2-3)Gal(b1-4)GlcNAc(b1-6)]Man(a1-6)[Neu5Ac(a2-3)Gal(b1-4)GlcNAc(b1-2)Man(a1-3)][GlcNAc(b1-4)]Man(b1-4)GlcNAc(b1-4)GlcNAc
# Summary of the method: as §1
# [19] = biological target: Neu5Ac(a2-3)Gal(b1-4)GlcNAc(b1-3)Gal
# Summary of the method: as §1
# [20] = biological target: Neu5Ac(a2-3)Gal(b1-4)GlcNAc(b1-3)Gal(b1-3)GlcNAc
# Summary of the method: as §1
# [21] = biological target: Neu5Ac(a2-3)Gal(b1-4)GlcNAc(b1-3)Gal(b1-4)GlcNAc
# Summary of the method: as §1
# [22] = biological target: Neu5Ac(a2-3)Gal(b1-4)GlcNAc(b1-3)Gal(b1-4)GlcNAc(b1-2)Man(a1-3)[Neu5Ac(a2-3)Gal(b1-4)GlcNAc(b1-3)Gal(b1-4)GlcNAc(b1-2)Man(a1-6)]Man(b1-4)GlcNAc(b1-4)GlcNAc
# Summary of the method: as §1
# [23] = biological target: Neu5Ac(a2-3)Gal(b1-4)GlcNAc(b1-3)Gal(b1-4)GlcNAc(b1-3)Gal(b1-4)GlcNAc
# Summary of the method: as §1
# [24] = biological target: Neu5Ac(a2-3)Gal(b1-4)GlcNAc(b1-3)Gal(b1-4)GlcNAc(b1-3)Gal(b1-4)GlcNAc(b1-2)Man(a1-3)[Neu5Ac(a2-3)Gal(b1-4)GlcNAc(b1-3)Gal(b1-4)GlcNAc(b1-3)Gal(b1-4)GlcNAc(b1-2)Man(a1-6)]GalNAc
# Summary of the method: as §1
# [25] = biological target: Neu5Ac(a2-3)Gal(b1-4)GlcNAc(b1-3)Gal(b1-4)GlcNAc(b1-3)GalNAc
# Summary of the method: as §1
# [26] = biological target: Neu5Ac(a2-3)Gal(b1-4)GlcNAc(b1-3)Gal(b1-4)GlcNAc(b1-3)[Neu5Ac(a2-3)Gal(b1-4)GlcNAc(b1-3)Gal(b1-4)GlcNAc(b1-6)]GalNAc
# Summary of the method: as §1
# [27] = biological target: Neu5Ac(a2-3)Gal(b1-4)GlcNAc(b1-3)Gal(b1-4)GlcNAc(b1-6)[Gal(b1-3)]GalNAc
# Summary of the method: as §1
# [28] = biological target: Neu5Ac(a2-3)Gal(b1-4)GlcNAc(b1-3)Gal(b1-4)[Fuc(a1-3)]GlcNAc
# Summary of the method: as §1
# [29] = biological target: Neu5Ac(a2-3)Gal(b1-4)GlcNAc(b1-3)GalNAc
# Summary of the method: as §1
binder,measurement,setting,value
B1,glycan array binding signal (z-score),[1],0.957
same,glycan array binding signal (z-score),[2],-1.4
same,glycan array binding signal (z-score),[3],-0.109
same,glycan array binding signal (z-score),[4],0.441
same,glycan array binding signal (z-score),[5],0.709
same,glycan array binding signal (z-score),[6],-0.505
same,glycan array binding signal (z-score),[7],0.679
same,glycan array binding signal (z-score),[8],1.56
same,glycan array binding signal (z-score),[9],-0.476
same,glycan array binding signal (z-score),Neu5Ac(a2-3)Gal(b1-4)Glc,0.989
same,glycan array binding signal (z-score),[10],1.19
same,glycan array binding signal (z-score),[11],0.291
same,glycan array binding signal (z-score),[12],-0.251
same,glycan array binding signal (z-score),[13],0.739
same,glycan array binding signal (z-score),[14],1.18
same,glycan array binding signal (z-score),[15],-0.107
same,glycan array binding signal (z-score),[16],6.13
same,glycan array binding signal (z-score),[17],-0.512
same,glycan array binding signal (z-score),[18],-0.935
same,glycan array binding signal (z-score),[19],-0.41
same,glycan array binding signal (z-score),[20],-0.049
same,glycan array binding signal (z-score),[21],-1.24
same,glycan array binding signal (z-score),[22],0.116
same,glycan array binding signal (z-score),[23],-0.802
same,glycan array binding signal (z-score),[24],1.35
same,glycan array binding signal (z-score),[25],1.37
same,glycan array binding signal (z-score),[26],-0.535
same,glycan array binding signal (z-score),[27],-0.124
same,glycan array binding signal (z-score),[28],0.147
same,glycan array binding signal (z-score),[29],-0.764

# Taken from the results shown (two entries):
binder,measurement,setting,value
B1,glycan array binding signal (z-score),[13],0.739
same,glycan array binding signal (z-score),[14],1.18
